PMC9949351, “Chromatin localization of nucleophosmin organizes ribosome biogenesis” (Molecular cell, 2022)
These are yes or no findings as the source states them, for the method shown. In cells and extracts the contact can be indirect. Here binding means that the protein was enriched with, or labelled near, the bait; the list need not be complete. Sequences can lack the tags named with a protein.

B1: Ytm1 (protein, UniProt Q9URY0 1-440)
chain: MDAQSAPSGQVQVRFTTRNEDLAVGDTPIFVPTSLKRYGLSQIVNHLLKTEKPTPFDFLVQGQLLKTTLDEYIVQNGLSTESILDIEYIQSTLPPAYLASFSHDDWISGIQLTSDTILTSSYDGIARVWDKSGEIKFQSTGCGSSLKSASWHIPNQSFLTASLDQKIFHWVIEEPESMLDAEKKSSGILQTLFVGHKDIVERVRSLESSSVFISASADNTVGIWDFERSPETTLESFSSSISKKRRRKNAEFTPQAGARSPLILCEGHTGPVMDIVFSDDPSVAYSVGQDHTIKTWDLITGQNVDSKITKAPLLCVEKLTDLHLVICGSSARHIVVHDPRAGSDKIVSHTLSGHKNLVSGLSASPENPYMFASVSHDNTCRVWDVRATSGSIYTISRAEKTGSQWDKLFAVDWNKSIGIVTGGTDKQLQINQSSSFGKSE
B2: Fkbp41 (found with Fkbp39-FLAG in S. pombe) (protein, UniProt Q10175 1-362)
chain: MSKEETLYSVKVDQERVPLFDEDFYKGFRSELSVRFTMAALDPRAKSNDAVTVNVITRLEHPEEDGEESDEELFQEEKFTLCTLKKGSVYQQPIDIIFSPGEEVFFERVGGDIPVYLSGTCIITNIPEEEDSSDLENDFLYGADEFSSDEEEMDDISVTSSEEEEEENGARIEELNSDEEDAEQAEEEILEKPVPKDEVAEKHSKDKLKKEEKEKKTAVDVSDSVNGKKRKTEPAGEGEQTEKKSKSTKTYPKQVLEGNVTVQDKVKGDGPAAKRKKRVSMRYIGRLTNGKVFDKNITGKPFTFNLGLEEVIKGWDVGIVGMQVGGERTIHIPAAMAYGSKRLPGIPANSDLVFDVKLLAVN

Assays:
[1] = biological target: T1, tagged endogenous Fkbp41 (S. pombe) (UniProt Q10175); test: affinity purification with mass spectrometry; endogenously tagged bait (Fkbp39-FLAG from wild-type and fkbp41Δ cells; FLAG-Ytm1 and tagged Fkbp41 from wild-type and fkbp39Δ cells; Nop1) from nuclease-treated S. pombe lysate on anti-FLAG M2 affinity gel, 100 mM NaCl, 7.5 mM MgCl2, Na phosphate pH 8, 0.1% Nonidet P40, eluted with 3XFLAG peptide; SDS-PAGE and mass spectrometry
T1 sequence: B2 chain

[2] = biological target: T2, endogenously FLAG-tagged Fkbp39 (S. pombe) (UniProt O74191); test: as above
T2 sequence: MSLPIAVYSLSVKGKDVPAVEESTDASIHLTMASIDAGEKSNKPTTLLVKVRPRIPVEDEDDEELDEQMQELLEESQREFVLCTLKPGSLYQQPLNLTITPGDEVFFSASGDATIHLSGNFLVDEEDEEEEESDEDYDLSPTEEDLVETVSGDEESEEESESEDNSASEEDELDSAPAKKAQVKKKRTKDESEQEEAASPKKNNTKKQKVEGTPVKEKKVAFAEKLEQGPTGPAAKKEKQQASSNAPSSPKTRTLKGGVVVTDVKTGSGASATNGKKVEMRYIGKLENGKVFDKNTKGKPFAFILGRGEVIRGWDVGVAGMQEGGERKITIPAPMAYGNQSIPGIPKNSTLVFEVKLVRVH

Molecule	binding [1]	binding [2]
Leo1 (S. pombe)	binds	–
B1	binds	–
B2	–	binds
